Experimental data: article PMC5996148
Some of the results follow.

Tests used:
Test in all cases: protein microarray (ProtoArray v5.0), streptavidin-Alexa Fluor 647
Conditions in all cases: 3'-biotin; 20 mM Tris (pH 7.5), 5 mM MgCl2, 100 mM KCl, 0.1% Tween-20, A/T-rich and random oligonucleotide blockers; temperature not stated; high values mean tight binding
LOC286208 (human) = system: LOC286208 (human)
LOC339483 (human) = system: LOC339483 (human)
LOC339804 (human) = system: LOC339804 (human)
LOC387942 (human) = system: LOC387942 (human)
LOC389687 (human) = system: LOC389687 (human)
LOC389822 (human) = system: LOC389822 (human)
LOC399951 (human) = system: LOC399951 (human)
LOC400120 (human) = system: LOC400120 (human)
LOC400600 (human) = system: LOC400600 (human)
LOC400877 (human) = system: LOC400877 (human)

GGGAGGCTGAGGCAGG [G4-1 biotinylated (PQS2)]
binding signal (LOC286208 (human)): -0.309 z-score | binding signal (LOC339483 (human)): -0.338 z-score | binding signal (LOC339804 (human)): -0.236 z-score | binding signal (LOC387942 (human)): -0.28 z-score | binding signal (LOC389687 (human)): -0.283 z-score | binding signal (LOC389822 (human)): -0.31 z-score | binding signal (LOC399951 (human)): -0.27 z-score | binding signal (LOC400120 (human)): -0.289 z-score | binding signal (LOC400600 (human)): -0.32 z-score | binding signal (LOC400877 (human)): -0.299 z-score
